# Library screen at single concentrations

From ChEMBL document CHEMBL3988442, “University of Dundee, Small-Polar-MMV Screening Library” (2021).

Each number is a percent effect as filed.
The record does not define 0% and 100%; most values in the screen are far below 50% and negative numbers occur (in some assays of this library far below -100).
This is an unselected part of the compounds tested.

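Phenotypic screen: M. tuberculosis growth, glucose 7H9 medium, 3 days; the read-out is not stated. Tested at 500 µM. Higher reads as more growth inhibition (inferred: compounds with an IC50 in retests scored well above the rest). About 18,000 compounds were tested under these conditions; 7.9% (about 1,400) showed 50% or more at least once.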

SMILES: CNCc1ncnn1C
effect: -2.241

SMILES: CN1CCN(CC(=O)Nc2cccc(Cl)c2Cl)CC1
effect: 17.81

SMILES: CC(N[C@@H]1CCCC[C@H]1O)c1nccn1C (some centres undefined)
effect: -1.92

SMILES: CNS(=O)(=O)c1ccc(NC2CCC2)cc1OC
effect: 3.478

SMILES: CCNC(=O)[C@@H]1C[C@H](N)CN1C(=O)C1(COC)CCC1
effect: 3.839

SMILES: Cc1nn(CCO)c(C)c1CNCCn1cccn1
effect: 0.4525

SMILES: COc1ccccc1S(=O)(=O)N1CCCCC1CN (centres undefined)
effect: 32.57

SMILES: NC1Cc2ccccc21 (centres undefined)
effect: 10.71

SMILES: CC(C)(N)C(C)(C)CO
effect: 0.7919

SMILES: CC(=O)N1CCc2cc(C(=O)C(C)O)ccc21 (centres undefined)
effect: 2.342

SMILES: CCCN1CCC(NC(=O)c2ccncc2)CC1
effect: 16.21

SMILES: CC(Cn1ccnc1)NC(=O)CN1CCCC1=O (centres undefined)
effect: 1.253

SMILES: CCC(NC(=O)c1cccc(=O)[nH]1)c1nc(C)c[nH]1 (centres undefined)
effect: 11.69

SMILES: OCc1scnc1Cl
effect: -5.053

SMILES: NC(=O)COc1ccccc1C(=O)N1CCSCC1
effect: 2.216

SMILES: CC(NS(=O)(=O)c1cc(Br)ccc1F)C(=O)N(C)C (centres undefined)
effect: 24.45

SMILES: O=C1CCCCN1CC1CCNCC1
effect: -4.867

SMILES: CC(C)(C)OC(=O)NCCC1CCCNC1 (centres undefined)
effect: 23.14

SMILES: CO[C@H]1CNCC1NC(=O)Cc1ccc(F)cc1F (some centres undefined)
effect: -4.875

SMILES: CCN1CCN(C(=O)Nc2cc(C)ccc2OC)CC1
effect: 25.4

SMILES: Cn1ccnc1SCC(=O)Nc1cccnc1
effect: 4.746

SMILES: CCc1nnc(CN2CCOC3(CCCC3)C2)o1
effect: 58.36

SMILES: CN(C(=O)c1cnn2cccnc12)C1CCCC1
effect: 0.4291

SMILES: CC(=O)Nc1ncc(Br)s1
effect: 10.71

SMILES: COCCCOC1CN(C(=O)c2cccnc2)C1
effect: 37.64

SMILES: CN(CC(=O)N1CCOCC1)c1nc(C(C)(C)C)ns1
effect: 17.21

SMILES: Cc1ccnc(CC2CCCN2)c1 (centres undefined)
effect: -3.43

SMILES: CNc1ccc(N)nc1
effect: -1080

SMILES: COc1ccccc1C(=O)NCCc1cncn1C
effect: 3.33

SMILES: CCC(C)(C)NCC(=O)N(C)Cc1ccco1
effect: -4.639

SMILES: NCCCS(=O)(=O)Cc1ccccc1
effect: 10.24

SMILES: CSC(C)C(=O)N(C)CC(=O)NC(C)C (centres undefined)
effect: 9.791

SMILES: Cn1cncc1CN
effect: 4.177

SMILES: CCN1CCC(N2CCCNCC2)CC1
effect: -2.318

SMILES: CNC(=O)Cn1cc(-c2cccc3cnccc23)cn1
effect: 12.64

SMILES: Cc1ccc(NC(=O)CSC2=NCCN2)cc1
effect: 4.228

SMILES: O=S1(=O)CCN(c2ccnc3cc(Cl)ccc23)CC1
effect: -7.6

SMILES: Cc1noc(Cn2cc(S(=O)(=O)N(C)C)ccc2=O)n1
effect: 9.51

SMILES: COCCN(Cc1cccs1)C(=O)C1CCNC1 (centres undefined)
effect: 3.643

SMILES: CCN(CC)c1nc2nc[nH]c(=O)c2s1
effect: -0.08876

SMILES: O=C(NC1CCN(c2ccccc2)CC1)c1cnc[nH]1
effect: 10.01

SMILES: CN(CCC1CCCO1)Cc1ccc(N(C)C)nc1 (centres undefined)
effect: 41.48

SMILES: CCOc1ccccc1NC(=O)Cn1ccnc1
effect: 2.839

SMILES: COC(=O)c1cnc(C)c(OC)c1
effect: 7.901

SMILES: CC(C)C(N)c1nnc2ccccn12 (centres undefined)
effect: 5.657

SMILES: c1ccc(NCCCN2CCOCC2)cc1
effect: -9.496

SMILES: Cc1ccsc1CN(CC(=O)N1CCNC1=O)C(C)C
effect: 9.138

SMILES: NC(=O)NC(=O)CCn1cc(-c2ccccc2)cn1
effect: -12.37

SMILES: CCOc1ccc(S(=O)(=O)N2CCNC(=O)C2)cc1C
effect: 3.348

SMILES: CC1COCCN1Cc1cn2ccccc2n1 (centres undefined)
effect: -3.388

SMILES: CCN(CC)C(=O)NCC[S+]([O-])C(C)(C)C (centres undefined)
effect: 7.901

SMILES: Cc1noc(C)c1CC(=O)N1CCN(C)CC1
effect: 8.395

SMILES: CN1CCN(C(=O)Cc2ccc3c(c2)OCO3)CC1
effect: 10.78

SMILES: COc1c(F)cccc1CN1C[C@H](O)[C@@H](N(C)C)C1
effect: 13.44

SMILES: Nc1ncc(I)cc1F
effect: -13.62

For reference, 4 entries once more:

{"smiles": "CC(NS(=O)(=O)c1cc(Br)ccc1F)C(=O)N(C)C", "stereo": "centres undefined", "effect": 24.45}
{"smiles": "CN(CCC1CCCO1)Cc1ccc(N(C)C)nc1", "stereo": "centres undefined", "effect": 41.48}
{"smiles": "CCNC(=O)[C@@H]1C[C@H](N)CN1C(=O)C1(COC)CCC1", "effect": 3.839}
{"smiles": "Cc1ccc(NC(=O)CSC2=NCCN2)cc1", "effect": 4.228}